# Laboratory results as given in patent US20240269242A1.
# Chains of the proteins cited; added tags and fusions are not shown. Residues count along the entry.
# UniProt Q9BYF1, residues 18-805: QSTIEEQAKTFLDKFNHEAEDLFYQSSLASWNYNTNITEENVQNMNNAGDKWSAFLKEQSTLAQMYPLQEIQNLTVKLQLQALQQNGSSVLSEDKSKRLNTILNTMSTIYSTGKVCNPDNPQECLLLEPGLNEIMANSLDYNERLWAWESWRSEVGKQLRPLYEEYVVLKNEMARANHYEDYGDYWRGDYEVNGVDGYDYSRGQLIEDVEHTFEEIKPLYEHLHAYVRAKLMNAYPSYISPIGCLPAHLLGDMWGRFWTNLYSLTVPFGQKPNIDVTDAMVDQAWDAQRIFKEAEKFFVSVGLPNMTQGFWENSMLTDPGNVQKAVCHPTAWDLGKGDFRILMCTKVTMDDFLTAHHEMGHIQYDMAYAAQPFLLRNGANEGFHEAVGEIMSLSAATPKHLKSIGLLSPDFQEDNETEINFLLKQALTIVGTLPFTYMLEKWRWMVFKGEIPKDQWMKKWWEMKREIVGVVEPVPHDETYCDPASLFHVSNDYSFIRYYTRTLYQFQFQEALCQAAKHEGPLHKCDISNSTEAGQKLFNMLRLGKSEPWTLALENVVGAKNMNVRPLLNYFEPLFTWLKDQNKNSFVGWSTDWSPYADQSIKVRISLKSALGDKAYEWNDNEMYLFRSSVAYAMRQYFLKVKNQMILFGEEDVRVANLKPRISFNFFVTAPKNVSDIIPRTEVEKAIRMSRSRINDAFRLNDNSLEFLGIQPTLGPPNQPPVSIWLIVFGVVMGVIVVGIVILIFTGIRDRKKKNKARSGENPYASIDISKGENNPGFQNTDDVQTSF
# Results are given in words; binding and its absence hold for the method and conditions named. Some entries that bind do so weakly or less than the wild type.
# B1: SP-A 223K containing 20-mer peptide (peptide)
# peptide: PAGRGKEKCVEMYTDGQWND
# What was measured:
# [1] = molecular target: ACE2 in lysates from HEK293T cells transfected with ACE2-expressing plasmids (UniProt Q9BYF1); assay: competition ELISA: soluble peptide against plate-bound SP-A for ACE2 lysate
# [2] = molecular target: ACE2 in lysates from HEK293T cells transfected with ACE2-expressing plasmids (UniProt Q9BYF1); assay: competition ELISA: soluble competitor against plate-bound SP-A for ACE2 lysate
binder,measurement,setting,value
B1,binding,[1],binds
same,binding,[2],binds
